Data published in PubChem BioAssay AID485314 (National Center for Advancing Translational Sciences (NCATS), 2010).
In all, about 340,000 compounds went through this assay and about 4,500 (1.3%) were called active. Inconclusive results, whose numbers are uncertain, are shown with a selection of clear calls. Calls come from the whole dose curve; as a rule, active = well fitted inhibition curve with a large enough effect; inconclusive = small, poorly fitted or top-dose-only effect, or another doubt; inactive = no such curve, though single readings can be large or run the other way. A potency beside an inconclusive call is a rough fit, not a confirmed value.

Molecular target: DNA polymerase beta (Homo sapiens) (UniProt P06746)
Experiment: qHTS Assay for Inhibitors of DNA Polymerase Beta
Settings: Pol beta primer extension/strand displacement, fluorescence kinetic; activity change, negative = inhibition: at 114 µM (top of the series)
How it was run: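 Enzyme-only controls used 10 nM Pol beta; buffer lacking enzyme served as negative control. Compound preincubated 15 min, then 50 nM substrate added; 0 and 10 min reads at room temperature.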
% is set by controls: 0 for no effect and ±100 for the full control effect; potency is the fitted concentration of half-maximal effect.

Compound	Potency	activity change, negative = inhibition
COc1ccc(OCCn2nnc3sc4c(c3c2=O)CCCC4)cc1	active: 11.2 µM	–
O=C1C2C=CC=CC2=NC(=S)N1CCN1CCC(=C(c2ccc(F)cc2)c2ccc(F)cc2)CC1 (stereo not given)	–	inactive: 7.27% [at 57.1 µM]
Cc1ccc(NS(=O)(=O)c2cc(C(=O)O)ccc2Cl)cc1	inconclusive: 15.8 µM [inhibitor, full curve, poor fit]	–
O=C(CN1CCC(NC(=O)c2ccc(Br)cc2)CC1)NCc1cccs1	–	inactive: -0.329%
Cc1ccc(NC(=O)CN(C)CC(=O)Nc2ccccc2Oc2ccccc2)cc1	inconclusive: 0.891 µM [inhibitor, full curve, poor fit]	–
O=C(O)c1ccc2c(c1Nc1ccccc1)C(=O)c1ccccc1C2=O	–	inactive: -11.5%
CCCOc1ccc(C2=CSC3=NCCN23)cc1[N+](=O)[O-]	–	inactive: 2.32%
COc1ccc(N2Cc3ccc(OC)c(OC)c3C2=O)cc1	inconclusive: 89.1 µM [inhibitor, partial curve, poor fit]	–
COc1cc(-c2c(C#N)c(N)nc(SCc3ccncc3)c2C#N)cc(OC)c1OC	inconclusive: 7.94 µM [inhibitor, full curve]	–
COc1cc(/C=N/NC(=O)C(=O)NCc2ccco2)cc(Br)c1O	inconclusive: 31.6 µM [inhibitor, full curve]	–
CCOC(=O)c1c(C)[nH]c(C)c1S(=O)(=O)NCC(=O)NCc1ccccc1C	–	inactive: -0.457%
Clc1ccccc1CSc1nc(NCCc2ccccc2)c2ccccc2n1	–	inactive: 22.5%
CCOc1ccccc1Oc1nc(C)nc2c1oc1ccccc12	–	inactive: 1.66%
Cn1c(Cl)nc2ccccc21	–	inactive: -0.754%
COc1ccc(COC(=O)N/N=C(\C)CC(=O)Nc2ccc(Cl)cc2)cc1	inconclusive: 89.1 µM [inhibitor, single point]	–
Cc1ccc(Cl)cc1N1CCN(C(=O)CCS(=O)(=O)c2ccc3c(c2)oc(=O)n3C)CC1	–	inactive: 20.1%
COc1ccccc1CNC(=O)CCc1c(C)nn(-c2ccc(N3CCCCC3)nn2)c1C	–	inactive: -0.0555%
CCOC(=O)/C=c1\s/c(=C(\C#N)C(=O)OCC)n(-c2ccccc2)c1=O	inconclusive: 7.94 µM [inhibitor, full curve, poor fit]	–
CC(=C/C(=O)O)/C=C/c1ccco1	inconclusive: 17.8 µM [inhibitor, single point]	–
CCOc1ccc(CNCc2c(C(=O)O)n(Cc3ccccc3C)c3cc(OC)ccc23)cc1OC	inconclusive: 89.1 µM [inhibitor, single point]	–
O=C(NNc1c2ccccc2nc2ccccc12)c1cccc(O)c1	inconclusive: 44.7 µM [inhibitor, partial curve]	–
CCOc1ccc(OCC)c(NC(=O)C2CCN(S(=O)(=O)c3cccc4nonc34)CC2)c1	inconclusive: 0.141 µM [inhibitor, full curve, poor fit]	–
CCn1cc(S(=O)(=O)c2ccc(Cl)cc2)c(=O)c2cc(F)c(N3CCOCC3)cc21	–	inactive: 0.43%
Cc1ccc(-c2cn3cccnc3n2)cc1	–	inactive: -0.784%
CCOc1ccc(-c2nc3cc(NC(=O)COc4cccc(C)c4)ccc3o2)cc1	–	inconclusive: -108% [inhibitor]

In another format: results already given

| Compound | Potency | activity change, negative = inhibition |
| --- | --- | --- |
| COc1ccc(OCCn2nnc3sc4c(c3c2=O)CCCC4)cc1 | active: 11.2 µM | – |
| O=C1C2C=CC=CC2=NC(=S)N1CCN1CCC(=C(c2ccc(F)cc2)c2ccc(F)cc2)CC1 (stereo not given) | – | inactive: 7.27% [at 57.1 µM] |
| Cc1ccc(NS(=O)(=O)c2cc(C(=O)O)ccc2Cl)cc1 | inconclusive: 15.8 µM [inhibitor, full curve, poor fit] | – |
| O=C(CN1CCC(NC(=O)c2ccc(Br)cc2)CC1)NCc1cccs1 | – | inactive: -0.329% |
| Cc1ccc(NC(=O)CN(C)CC(=O)Nc2ccccc2Oc2ccccc2)cc1 | inconclusive: 0.891 µM [inhibitor, full curve, poor fit] | – |
| O=C(O)c1ccc2c(c1Nc1ccccc1)C(=O)c1ccccc1C2=O | – | inactive: -11.5% |
| CCCOc1ccc(C2=CSC3=NCCN23)cc1[N+](=O)[O-] | – | inactive: 2.32% |
| COc1ccc(N2Cc3ccc(OC)c(OC)c3C2=O)cc1 | inconclusive: 89.1 µM [inhibitor, partial curve, poor fit] | – |
| COc1cc(-c2c(C#N)c(N)nc(SCc3ccncc3)c2C#N)cc(OC)c1OC | inconclusive: 7.94 µM [inhibitor, full curve] | – |
| COc1cc(/C=N/NC(=O)C(=O)NCc2ccco2)cc(Br)c1O | inconclusive: 31.6 µM [inhibitor, full curve] | – |
| CCOC(=O)c1c(C)[nH]c(C)c1S(=O)(=O)NCC(=O)NCc1ccccc1C | – | inactive: -0.457% |
| Clc1ccccc1CSc1nc(NCCc2ccccc2)c2ccccc2n1 | – | inactive: 22.5% |
| CCOc1ccccc1Oc1nc(C)nc2c1oc1ccccc12 | – | inactive: 1.66% |
| Cn1c(Cl)nc2ccccc21 | – | inactive: -0.754% |
| COc1ccc(COC(=O)N/N=C(\C)CC(=O)Nc2ccc(Cl)cc2)cc1 | inconclusive: 89.1 µM [inhibitor, single point] | – |

Next part:

Compound	Potency	activity change, negative = inhibition
COc1ccc(-c2nc(CN3CCC(c4ccccc4)CC3)c(C)o2)cc1OC	inconclusive: 2.51 µM [inhibitor, full curve]	–
N#Cc1c(NC(=S)NC(=O)Cc2cccs2)sc2c1CCCCC2	active: 44.7 µM	–
CCOc1ccc(C(=O)Nc2cccc(-c3ccc4nncn4n3)c2)cc1	inconclusive: 15.8 µM [inhibitor, single point]	–
COc1ccc(-c2noc(CSc3nnc(C)n3-c3ccc(C)c(C)c3)n2)c(OC)c1	–	inactive: 25.1%
O=C1NN(c2ccccc2)C(=O)/C1=C/c1ccc(Sc2ccc(Cl)cc2)o1	–	inconclusive: -67.1% [inhibitor]
O=C(C[n+]1ccccc1)Nc1c(Cl)cc(Cl)cc1Cl	active: 8.91 µM	–
O=[N+]([O-])c1cc2c(c(CSc3nnnn3-c3ccc(O)cc3)c1)OCOC2	inconclusive: 0.501 µM [inhibitor, full curve, poor fit]	–
O=C(N/N=C/c1cc(Br)ccc1O)c1ccncc1	–	inactive: 31.6%
Cc1ccc(CNC(=O)CN2C(=O)C3(SCC(=O)N3c3ccc(F)c(F)c3)c3ccccc32)cc1 (stereo not given)	–	inactive: -3.59%
CC1(C)NC(=O)N(CC(=O)Nc2cc(S(=O)(=O)N3CCOCC3)ccc2N2CCOCC2)C1=O	inconclusive: 1.12 µM [inhibitor, partial curve, poor fit]	–
Cc1cc([N+](=O)[O-])nn1CC(=O)NCCCN1CCOCC1	inconclusive: 70.8 µM [inhibitor, single point]	–
O=C(CN1C(=O)CCc2cc(S(=O)(=O)N3CCCCC3)ccc21)NCc1ccc(Cl)cc1	–	inactive: -17.4%
NC(=O)c1ccc(NC(=O)CCN2C(=O)c3ccccc3C2=O)cc1	–	inactive: -3.05%
COc1ccc(NC(=O)CCc2nnc3ccc(NCc4ccc5c(c4)OCO5)nn23)cc1	–	inconclusive: -44.3% [inhibitor]
CCc1ccc(NC(=O)CSc2ncc(S(=O)(=O)c3cc(C)ccc3C)c(=O)[nH]2)cc1	–	inactive: 6.66%
Cc1cc(C(=O)NCCCn2ccnc2)sc1-c1ccccc1	inconclusive: 89.1 µM [inhibitor, single point]	–
Cc1ccc2nc(SCC(=O)NCc3ccco3)c(C#N)cc2c1	inconclusive: 6.31 µM [inhibitor, full curve, poor fit]	–
Cc1ccc(/C=C/c2onc(C)c2S(=O)(=O)N2CCC(C(=O)NCc3ccc(OC(C)C)cc3)CC2)cc1	–	inactive: 2.95%
COc1cccc(CNCCSc2nnnn2-c2ccccc2)c1OC	–	inactive: 2.2%
CCc1ccc(C(=O)NNc2ccc(C)c(Cl)c2)cc1	–	inactive: -1.9%
Cc1nnc2c(-c3ccccc3)nc3ccccc3n12	inconclusive: 89.1 µM [inhibitor, single point]	–
O=C1CSC(=S)N1/N=C/C=C/c1ccccc1	active: 28.2 µM	–
CC(C)Sc1nc2sc3c(c2c(=O)n1Cc1ccccc1)CCCC3	–	inactive: 15.4%
O=C(Nc1nnc(SCCC2OCCO2)s1)C1CC(=O)N(c2ccccc2)C1 (stereo not given)	inconclusive: 56.2 µM [inhibitor, partial curve, poor fit]	–
COc1cc(/C=C2/C(=O)NN(c3cccc(F)c3)C2=O)ccc1OC(=O)c1ccco1	inconclusive: 100 µM [inhibitor, single point]	–

Compound	Potency	activity change, negative = inhibition
Cc1cccc(Cn2cc3c(=O)n(CC(=O)Nc4c(C)cccc4C)nc-3c3cc(F)ccc32)c1	–	inactive: 3.16%
CCCCn1c(=O)c(CCC(=O)OCC(=O)NCc2ccc(OC)c(OC)c2)nc2ccccc21	inconclusive: 89.1 µM [inhibitor, single point]	–
Cc1ccc(/C=C/C(=O)Nc2ccccc2C(N)=O)cc1	inconclusive: 17.8 µM [inhibitor, full curve, poor fit]	–
CCC(CC)=NNc1cccc([N+](=O)[O-])c1	–	inactive: -15.7%
COc1ccc(N(C)C(=O)CN(C)S(=O)(=O)c2ccc3c(c2)c(=O)n(C)c(=O)n3C)c(OC)c1	–	inconclusive: -64.3% [inhibitor]
CC[n+]1ccc(/C=C/c2ccc(N(C)C)cc2)c2ccccc21	active: 44.7 µM	–
O=C(CN1CCN(c2ccccc2)CC1)NC(=O)NCc1ccco1	–	inactive: 6.49%
O=[N+]([O-])c1ccccc1S(=O)(=O)N1CCN(Cc2ccccc2)CC1	inconclusive: 79.4 µM [inhibitor, single point]	–
O=C(O)CCc1ccc(-c2ccc(Cl)cc2)n1CC(=O)O	inconclusive: 17.8 µM [inhibitor, full curve]	–
CCOC(=O)/C(N=Nc1ccc(C(=O)O)cc1[N+](=O)[O-])=C(\C)O	–	inactive: -26.3%
Cc1ccc(SCCN2CCN(C)CC2)cc1	–	inactive: 95.9%
COc1ccc(NC(=O)Nc2ccon2)c(OC)c1	inconclusive: 31.6 µM [inhibitor, single point]	–
COc1cc(-c2nc(S(=O)(=O)c3ccc(Br)cc3)c(N3CCOCC3)o2)cc(OC)c1OC	–	inactive: 3.95%
CCCCCCCC/C=C\CCCCCCCC(=O)NCCc1ccc(O)c(O)c1	inconclusive: 25.1 µM [inhibitor, single point]	–
O=c1c2c3nc4ccccc4nc3n(-c3cccc(F)c3)c2ncn1Cc1ccc2c(c1)OCO2	inconclusive: 22.4 µM [inhibitor, partial curve]	–
Cc1cccc(Nc2sc(C(=O)c3cc4cc(Cl)ccc4o3)c(N)c2C#N)c1	active: 10 µM	–
CCOC(=O)c1[nH]c2ccc(OC)cc2c1NC(=S)N1CCN(c2ccccc2)CC1	inconclusive: 79.4 µM [inhibitor, single point]	–
Cc1nc2cc(C(=O)O)ccc2s1	–	inactive: 9.08%
N#Cc1c(NC(=O)C2CC=CCC2C(=O)O)sc2c1CCCCCC2 (stereo not given)	active: 17.8 µM	–
CCc1ccc(CNc2ccc3c(c2)ncn3CC)cc1	–	inactive: -0.321%
Cc1cc(N2CCN(c3cccc(C)c3C)CC2)n2cnnc2n1	active: 0.158 µM	–
CC(NC(=O)c1ccccc1NC(=O)c1ccccc1)C(=O)N1CCOCC1 (stereo not given)	inconclusive: 10 µM [inhibitor, partial curve]	–
COC(=O)c1ccc([C@@H]2C[C@H]3CN(Cc4cccnc4)C(=O)[C@]34CCCN24)cc1	inconclusive: 0.708 µM [inhibitor, full curve, poor fit]	–
Cc1c(C(=O)Nc2ccncc2)sc2nc(-c3ccccc3)cn12	inconclusive: 39.8 µM [inhibitor, full curve]	–
CCN1CCN(c2cc(C)c3cc(NC(=S)N4CCCC(C)C4)ccc3n2)CC1 (stereo not given)	inconclusive: 0.158 µM [inhibitor, full curve, poor fit]	–
